# Measured values from US20250345426A1, “METHODS FOR MAKING AND USING THERAPEUTIC CELLS” (THE REGENTS OF THE UNIVERSITY OF CALIFORNIA, priority 2022, published 2025).
# At least one compound was matched to its structure with a doubt left.
# What was measured:
# rituximab CAR-T cells [1] = test: TNF-α production without antigen stimulation, intracellular flow cytometry, rituximab CAR-T cells; format: cell-based, human; details: vs vehicle (DMSO)
# Text: (§1) FIG. 1A-G. Pharmacological inhibition of PI3K/AKT pathway modulates antigen-independent CAR-T cell activation. (A) Table of pharmacological inhibitors used during ex vivo expansion of rituximab CAR-T cells (left). Simplified schematic of the PI3K/AKT signaling axis where black arrows represent activation (right). (B) Activation marker expression by CAR^+ T cells in the absence of antigen stimulation after 5 days of pharmacological modulation. Data bars indicate the means of technical triplicates±1 S.D. The bars in FIG. 1B represent data from, untreated, vehicle, CAL-101, AZD5363, Rapamycin, MYCi975, and Betulin, respectively, from left to right. (C) TNF-α production CAR^+ T cells in the absence of antigen stimulation as quantified by intracellular flow cytometry. Data bars indicate the means of technical triplicates±1 S.D. The bars in FIG. 1B and FIG. 1C represent data from, untreated, vehicle, CAL-101, AZD5363, Rapamycin, MYCi975, and Betulin, respectively, from left to right. (D) Proliferation of CAR^+ T cells stained with CellTrace Violet (CTV) dye was assayed after a 4-day culture in the absence of target cells or exogenous cytokines. […] Statistical significance in panels B, C, and D was determined by two-tailed Student's t test with Sidak correction for multiple comparisons. * p<0.05, ** p<0.01, *** p<0.001, n.s. not statistically significant. […]
# rituximab CAR-T cells [2] = test: T-cell subtype distribution (CD45RO/CD62L staining), rituximab CAR-T cells; format: cell-based, human; details: 5 days of pharmacological modulation, vs vehicle
# Text: as §1, with “cytometry.” for “cytometry. Data bars indicate the means of technical triplicates±1 S.D. The bars in FIG. 1B and FIG. 1C represent data from, untreated, vehicle, CAL-101, AZD5363, Rapamycin, MYCi975, and Betulin, respectively, from left to right. (D) Proliferation of CAR^+ T cells stained with CellTrace Violet (CTV) dye was assayed after a 4-day culture in the absence of target cells or exogenous cytokines.”
# Antibody staining for flow-cytometry analysis. EGFRt expression was measured with biotinylated cetuximab (Eli Lilly; biotinylated in-house), followed by PE-conjugated streptavidin (Jackson ImmunoResearch #016-110-084). CAR expression was quantified by surface epitope staining using anti-Fc (Alexa Fluor 488, Jackson ImmunoResearch #709-546-098). […]
# Raji target cells = test: 24-hr lysis assay of inhibitor-treated rituximab CD20 CAR-T cells against Raji; format: cell-based; details: three E:T ratios, vs vehicle-treated
# Text: FIG. 1A-G. Pharmacological inhibition of PI3K/AKT pathway modulates antigen-independent CAR-T cell activation. (A) Table of pharmacological inhibitors used during ex vivo expansion of rituximab CAR-T cells (left). Simplified schematic of the PI3K/AKT signaling axis where black arrows represent activation (right). (B) Activation marker expression by CAR^+ T cells in the absence of antigen stimulation after 5 days of pharmacological modulation. Data bars indicate the means of technical triplicates±1 S.D. The bars in FIG. 1B represent data from, untreated, vehicle, CAL-101, AZD5363, Rapamycin, MYCi975, and Betulin, respectively, from left to right. (C) TNF-α production CAR^+ T cells in the absence of antigen stimulation as quantified by intracellular flow cytometry. Data bars indicate the means of technical triplicates±1 S.D. The bars in FIG. 1B and FIG. 1C represent data from, untreated, vehicle, CAL-101, AZD5363, Rapamycin, MYCi975, and Betulin, respectively, from left to right. […] Statistical significance in panels B, C, and D was determined by two-tailed Student's t test with Sidak correction for multiple comparisons. * p<0.05, ** p<0.01, *** p<0.001, n.s. not statistically significant.
# Cytotoxicity assay with Raji cells. […] Remaining target cells were quantified by MACSQuant VYB flow cytometer 24-hr post co-incubation.
# rituximab CAR-T cells [3] = test: Antigen-independent activation and exhaustion marker expression by flow cytometry, rituximab CAR-T cells; format: cell-based, human; details: 5 days inhibitor culture, no antigen, vs vehicle (DMSO), CAL-101 1 μM, AZD5363 1 μM
# Text: as §1, with “cytokines. Data shown in the histogram correspond to one of technical triplicates shown in the bar graph. The bars FIG. 1D represent data from, EGFRt, untreated, vehicle, CAL-101, AZD5363, Rapamycin, MYCi975, and Betulin, respectively, from left to right. (E) % distribution of T-cell subtypes in CAR^+ T cells after 5 days of pharmacological modulation. Data bars indicate the means of technical triplicates±1 S.D. (F) Rituximab CAR-T cell fold expansion after 6 days of inhibitor culture was tracked.” for “cytokines.”
# Antibody staining for flow-cytometry analysis. EGFRt expression was measured with biotinylated cetuximab (Eli Lilly; biotinylated in-house), followed by PE-conjugated streptavidin (Jackson ImmunoResearch #016-110-084). CAR expression was quantified by surface epitope staining using anti-Fc (Alexa Fluor 488, Jackson ImmunoResearch #709-546-098). Antigen-independent activation-marker expression of CAR-T cells was evaluated by antibody staining for CD137 (PE/Cy7, clone 4B4-1, BioLegend #309818), and PD-1 (FITC, clone EH12.2H7, BioLegend #329904) on Days 18 (i.e., 18 days after Dynabead addition and 11 days after Dynabead removal) and after 5-6 days of inhibitor culture (FIG. 1, FIG. 3). T-cell subtype of CAR-T cells was evaluated by antibody staining for CD45RO (VioBlue®, clone REA611, Miltenyi #130-119-620) and CD62L (APC, clone DREG56, Invitrogen #17-0629-42) after 5-6 days of inhibitor culture (FIG. 1, FIG. 3). […]
# Raji tumor xenografts = test: Raji xenograft in NSG mice treated with inhibitor-preconditioned rituximab CAR-T cells; format: in vivo; details: NSG mice, Raji i.v., preconditioned rituximab CAR-T cells, bioluminescence, vs vehicle control
# Method: FIG. 2A-C. […] (A) Tumor signal (in photons/sec/cm^2/sr) in individual animals as quantified by bioluminescence imaging. […] Statistical significance was determined by Mann-Whitney U test with Holm-Sidak correction for multiple comparisons. * p<0.05, n.s. not statistically significant. (B) Kaplan-Meier survival curve (top) and table of median survival period in days (bottom). (C) Frequency of human CD45+EGFRt+ cell in peripheral blood collected from mice on day 8 after first dose of T-cell infusion. Statistical significance was determined by two-tailed Student's t test with Sidak correction for multiple comparisons. * p<0.05, ** p<0.01.
# In vivo studies. Six- to eight-week-old NOD/SCID/IL-2Rγ^null (NSG) mice were obtained from UCLA Department of Radiation and Oncology. The protocol was approved by UCLA Institutional Animal Care and Used Committee. […] Details of the dose and timing of tumor injection, T-cell injection, and tumor re-challenge are indicated in the text and figures. Tumor progression/regression was monitored with an IVIS Illumina III LT Imaging System (PerkinElmer). Blood samples were harvested via retro-orbital bleeding 3 days post T-cell injection and every 10-13 days thereafter. Mice were euthanized at the humane endpoint. Bone marrow, spleen and liver were collected after euthanasia. […]
# rituximab CAR-T cells [4] = test: CellTrace Violet proliferation assay without target cells or exogenous cytokines, rituximab CAR-T cells; format: cell-based, human; details: 4-day culture, CTV dye, vs vehicle (DMSO)
structure (smiles),measurement,setting,value
CC[C@H](Nc1ncnc2[nH]cnc12)c1nc2cccc(F)c2c(=O)n1-c1ccccc1 [CAL-101],TNF-α production in the absence of antigen stimulation,rituximab CAR-T cells [1],significantly reduced
same,fraction of naïve and stem-cell memory T (Tn/scm) cells / T-cell differentiation,rituximab CAR-T cells [2],preserved a greater fraction
same,lysis of Raji tumor cells,Raji target cells,clustered together
same,antigen-independent expression of activation and exhaustion markers,rituximab CAR-T cells [3],significantly reduced
same,tumor outgrowth / tumor progression,Raji tumor xenografts,delayed tumor outgrowth
same,antigen-independent cell division,rituximab CAR-T cells [4],significantly reduced
